Assay results: the supplement of paper PMC8616043
Counter-ions that a name gives are not always drawn. The list shows a part of the results. This data set is noisy: repeats of one test often differ as much as different tests do.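 PR50, a 50-repeat proline–arginine dipeptide protein from C9ORF72 (ALS/FTD), was expressed by transfection in U-2 OS human cells stably carrying a GFP sensor with import and classical export signals. Per-well nuclear-minus-cytoplasm GFP, normalized between in-plate DMSO (low) and PR-only (high), was scored versus other test wells; compounds well below zero were hits reversing PR.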

system: U-2 OS NCT-C biosensor cells expressing PR50; assay: Z-score of normalised NCT-C biosensor translocation index in PR50-expressing cells; higher = more nuclear biosensor (more disrupted nuclear export); conditions: 3 µM; 24 h

| SMILES | Z-score |
| --- | --- |
| NCCCC[C@H](N[C@@H](CCc1ccccc1)C(=O)O)C(=O)N1CCC[C@H]1C(=O)O [Lisinopril·2H2O] | inactive: 0.132 |
| FC(F)(F)c1ccccc1-n1ccnc1 [1-[2-  (Trifluoromethyl)ph enyl]imidazole] | inactive: -0.216 |
| C[C@@]12CCc3occc3[C@H]1CC[C@@]13C[C@@H](CC[C@H]12)[C@@](O)(CO)C3 [Cafestol] | inactive: -0.126 |
| NCCOc1cc(C(=O)Nc2cc(OCCN)c3ccccc3n2)nc(C(=O)Nc2cc(OCCN)c3ccccc3n2)c1 [Pyridostatin trifluoroacetate salt] | inactive: -0.763 |
| CO/N=C(\C(=O)N[C@@H]1C(=O)N2C(C(=O)O)=C(CSc3nc(=O)c(O)nn3C)CS[C@H]12)c1csc(N)n1 [Ceftriaxone sodium salt] | inactive: -0.473 |
| COc1cc(OC)c2c(=O)[nH]c(-c3cc(C)c(OCCO)c(C)c3)nc2c1 | active: -2.96 |
| Oc1ccccc1O [Pyrocatechol] | inactive: -0.0856 |
| COc1cccc(NC(=O)/C=C/c2ccc(Cl)cc2)c1 | inactive: -0.762 |
| O=C1C[C@@H](c2ccc(O)c(O)c2)Oc2cc(O[C@@H]3O[C@H](CO)[C@@H](O)[C@H](O)[C@H]3O)cc(O)c21 [Eriodictyol-7-O-glucoside] | inactive: -0.302 |
| CN(C)CCC(c1ccc(Cl)cc1)c1ccccn1 (single isomer, unassigned; (+)) [(+)-Chlorpheniramine maleate salt] | inactive: -0.523 |
| Cc1scc2c1N(C(=O)CN1CCN(C)CC1)c1ccccc1NC2=O [Telenzepine dihydrochloride] | inactive: 0.26 |
| c1ccc(C2CN3CCSC3=N2)cc1 (configuration not stated) [Tetramisole hydrochloride] | inactive: -0.33 |
| Cn1c(=O)c2nc[nH]c2n(C)c1=O [Theophylline] | inactive: -0.316 |
| CCCCCCCCCCCCCCCC(=O)OC[C@H](COP(=O)(O)OCCNC(=O)[C@H](C)NC(=O)CC[C@@H](NC(=O)[C@H](C)NC(=O)[C@@H](C)O[C@H]1[C@H](O)[C@@H](CO)OC(O)[C@@H]1NC(C)=O)C(N)=O)OC(=O)CCCCCCCCCCCCCCC (some centres not stated) [Mifamurtide] | inactive: 1.08 |
| Cc1cc(=O)oc2cc(O)ccc12 [4-Methylumbelliferone] | inactive: 0.573 |
| CNC(=O)c1cc2c(cn1)[nH]c1ccccc12 [N-Methyl-beta-carboline-3-carboxamide] | inactive: -0.456 |
| CC(C)C[C@H](NC(=O)[C@@H](COC(C)(C)C)NC(=O)[C@H](Cc1ccc(O)cc1)NC(=O)[C@H](CO)NC(=O)[C@H](Cc1c[nH]c2ccccc12)NC(=O)[C@H](Cc1cnc[nH]1)NC(=O)[C@@H]1CCC(=O)N1)C(=O)N[C@@H](CCCNC(=N)N)C(=O)N1CCC[C@H]1C(=O)NNC(N)=O [Goserelin Acetate] | inactive: 1.07 |

Shown as comma-separated lines: 2 of the compounds above
SMILES,Z-score
NCCOc1cc(C(=O)Nc2cc(OCCN)c3ccccc3n2)nc(C(=O)Nc2cc(OCCN)c3ccccc3n2)c1 [Pyridostatin trifluoroacetate salt],inactive: -0.763
CO/N=C(\C(=O)N[C@@H]1C(=O)N2C(C(=O)O)=C(CSc3nc(=O)c(O)nn3C)CS[C@H]12)c1csc(N)n1 [Ceftriaxone sodium salt],inactive: -0.473
